This passage reports step yield results from publication PMC8456932 (Angewandte Chemie (International Ed. in English), 2021).

The data set can be described thus: general procedure: Fmoc solid-phase peptide synthesis; Rink Amide MBHA resin; 2-chlorotrityl chloride resin; HBTU, HOBt, DIPEA.
The mark [1] stands for this setting: lipidation step, HPLC-MS relative ratio.
Where [2] appears, read: lipidation step, calibrated, HPLC-MS.
Where [3] appears, read: lipidation step, calibrated, HPLC-UV.
Setting [4] is: late stage modification step, run 1.
Setting [5] is: late stage modification step, calibrated, HPLC-MS.
Where [6] appears, read: late stage modification step, calibrated, HPLC-UV.
Setting [7] is: late stage modification step, HPLC-MS.

Values joined by “and” are separate entries in the source; they are usually repeats but may differ in a detail not shown here. Identical values can stand only once. Strings that start with PEPTIDE1 are HELM notation: dots part the residues, brackets hold end groups and non-standard residues.

Regarding Alkynylated Ac-Ala-Cys-Gly-Phe-NH2, under setting [1], the step yield stood at 82%.
Where the note is “late stage modification step”, “PEPTIDE1{A.L.F.[XCysA].A.L.[am]}$$$$V2.0” came in with a step yield of 61%.
Regarding “PEPTIDE1{A.L.F.[XCysB].A.L.[am]}$$$$V2.0”, the step yield under setting [2] came to 69%; the step yield under setting [3] was 78%; the step yield (lipidation step, run 1) is 76% and 40%.
“PEPTIDE1{A.[XCysA].A.F.K.D.[am]}$$$$V2.0”: the step yield (late stage modification step) is 89%.
Take “PEPTIDE1{A.[XCysA].F.G.A.L.[am]}$$$$V2.0”: the step yield under setting [1] was 86%.
“PEPTIDE1{A.[XCysB].A.F.K.D.[am]}$$$$V2.0” registered a step yield (lipidation step) of 62%.
“PEPTIDE1{A.[XCysB].F.G.A.L.[am]}$$$$V2.0”: the step yield runs as follows: under setting [1], 82%; (lipidation step, calibrated yield, HPLC-MS) 90%; (lipidation step, calibrated yield, HPLC-UV) 70%; (lipidation step, isolated) 36%.
As to “PEPTIDE1{F.[XCysA].F.K.A.L.[am]}$$$$V2.0”, the step yield (late stage modification step) turned out to be 89%.
Same read-out and setting: the same measure for “PEPTIDE1{F.[XCysA].G.P.S.L.[am]}$$$$V2.0”: 67%.
The substance “PEPTIDE1{F.[XCysB].F.K.A.L.[am]}$$$$V2.0” displayed a step yield (lipidation step) of 80%.
The substance “PEPTIDE1{F.[XCysB].G.P.S.L.[am]}$$$$V2.0” registered a step yield (lipidation step) of 74%.
Substance “PEPTIDE1{G.[XCysA].A.F.K.T.[am]}$$$$V2.0” registered a step yield (late stage modification step) of 69%.
The same measure, in the same setting: then “PEPTIDE1{G.[XCysA].A.L.N.T.[am]}$$$$V2.0”, with 86%.
Under “lipidation step”, “PEPTIDE1{G.[XCysB].A.F.K.T.[am]}$$$$V2.0” gave a step yield of 72%.
For “PEPTIDE1{G.[XCysB].A.L.N.T.[am]}$$$$V2.0”, the step yield (lipidation step) was 84%.
For “PEPTIDE1{[ac].A.[Cys(VBX)].G.F.[am]}$$$$V2.0”, the step yield by setting is: (lipidation step) 16%; under setting [1], 18%.
Turning to “PEPTIDE1{[ac].A.[XCysA].G.F.[am]}$$$$V2.0”, the step yield is recorded as 82% under setting [1]; 79% (lipidation step, calibrated yield); 36% (lipidation step, isolated).
Take “PEPTIDE1{[ac].E.R.A.A.K.E.R.A.[XCysA].A.E.R.A.A.E.G.G.Y.[am]}$$$$V2.0”: the step yield (late stage modification step) was 81%.
Where the note is “lipidation step”, “PEPTIDE1{[ac].E.R.A.A.K.E.R.A.[XCysB].A.E.R.A.A.E.G.G.Y.[am]}$$$$V2.0” yielded a step yield of 47%.
Turning to “PEPTIDE1{[ac].F.H.[Cys(CC-TIPS)].Q.V.[Cys(CC-TIPS)].F.I.T.[am]}$$$$V2.0”, the step yield is, setting by setting: under setting [4], 31% and 57%; (lipidation step) 57%.
The substance “PEPTIDE1{[ac].L.Q.Q.[XCysA].P.F.E.D.H.[am]}$$$$V2.0” registered a step yield (late stage modification step) of 78%.
On to “PEPTIDE1{[ac].L.Q.Q.[XCysB].P.F.E.D.H.[am]}$$$$V2.0”, for which the step yield (lipidation step) was found to be 52%.
Take “PEPTIDE1{[ac].M.V.R.Q.V.H.K.D.L.I.[XCysA].E.P.N.E.[am]}$$$$V2.0”: the step yield (late stage modification step) was 76%.
Substance “PEPTIDE1{[ac].M.V.R.Q.V.H.K.D.L.I.[XCysB].E.P.N.E.[am]}$$$$V2.0” displayed a step yield (lipidation step) of 50%.
On to “PEPTIDE1{[ac].N.Q.K.L.L.R.W.L.N.[XCysA].F.T.Q.Q.S.Q.[am]}$$$$V2.0”, for which the step yield was 38% under setting [5]; 77% under setting [6]; 95% and 51% under setting [4].
As for “PEPTIDE1{[ac].N.Q.K.L.L.R.W.L.N.[XCysB].F.T.Q.Q.S.Q.[am]}$$$$V2.0”, the step yield (lipidation step, run 1) is 69% and 51%.
Consider “PEPTIDE1{[ac].W.M.N.S.T.G.F.T.K.V.[Cys(VBX)].G.A.[am]}$$$$V2.0”, for which the step yield turned out to be 17% (lipidation step, run 1) and 19% (lipidation step, run 2).
In the case of “PEPTIDE1{[ac].W.M.N.S.T.G.F.T.K.V.[XCysA].G.A.[am]}$$$$V2.0”, the step yield reads like this: under setting [5], 83%; under setting [6], 80%.
On to “PEPTIDE1{[ac].W.M.N.S.T.G.F.T.K.V.[XCysB].G.A.[am]}$$$$V2.0”, for which, for the setting “lipidation step”, the step yield is given as 74%.
In the case of “palmitolyl-ester of Ac-Ala-Cys-Gly-Phe-NH2”, the step yield (lipidation step, HPLC-MS) was 76%.
As to “palmitoyl thioester of H-Gly-Cys-Ala-Phe-Lys-Thr-NH2”, the step yield runs as follows: (lipidation step) 34%; (lipidation step, HPLC-MS) 73%; under setting [2], 40%; under setting [3], 50%.
As to “palmitoylthioester of Ac-Trp-Met-Asn-Ser-Thr-Gly-Phe-Thr-Lys-Val-Cys-Gly-Ala-NH2”, the step yield (lipidation step) is given as 67%.
Take “silylthioester of Ac-Trp-Met-Asn-Ser-Thr-Gly-Phe-Thr-Lys-Val-Cys-Gly-Ala-NH2”: the step yield under setting [7] is 82%.
Take “silylthioester of H-Ala-Cys-Ala-Phe-Lys-Asp-NH2”: the step yield is, setting by setting: (late stage modification step) 35%; under setting [7], 58%.
The substance “silylthioester of H-Gly-Cys-Ala-Phe-Lys-Thr-NH2” registered a step yield under setting [7] of 58%.
